Test results as given in publication PMC10762002.
Results are given in words; binding and its absence hold for the method and conditions named. In cells and extracts the contact can be indirect. Some results given as binding are weak or reduced against the parent protein; the word gives no strength. For part of these data: Sequences can lack the tags named with a protein.

T1: endogenous Perilipin 1 (Plin1) (mouse (endogenous in WAT and 3T3-L1)) (UniProt Q8CGN5)
T1 sequence: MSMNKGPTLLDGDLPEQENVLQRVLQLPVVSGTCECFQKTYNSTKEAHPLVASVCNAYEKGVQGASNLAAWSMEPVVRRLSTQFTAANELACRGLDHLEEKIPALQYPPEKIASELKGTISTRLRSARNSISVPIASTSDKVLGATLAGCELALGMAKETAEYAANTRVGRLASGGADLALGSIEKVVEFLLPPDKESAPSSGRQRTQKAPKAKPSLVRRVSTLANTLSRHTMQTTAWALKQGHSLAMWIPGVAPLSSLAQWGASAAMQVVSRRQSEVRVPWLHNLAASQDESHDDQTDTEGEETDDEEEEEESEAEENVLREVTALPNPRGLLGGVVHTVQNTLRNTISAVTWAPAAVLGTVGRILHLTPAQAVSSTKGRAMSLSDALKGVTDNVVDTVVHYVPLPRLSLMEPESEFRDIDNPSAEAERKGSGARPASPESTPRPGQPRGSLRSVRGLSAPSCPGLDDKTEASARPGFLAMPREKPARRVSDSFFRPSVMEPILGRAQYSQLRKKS

T2: Plin1 expressed in HEK293 cells (UniProt Q8CGN5)
T2 sequence: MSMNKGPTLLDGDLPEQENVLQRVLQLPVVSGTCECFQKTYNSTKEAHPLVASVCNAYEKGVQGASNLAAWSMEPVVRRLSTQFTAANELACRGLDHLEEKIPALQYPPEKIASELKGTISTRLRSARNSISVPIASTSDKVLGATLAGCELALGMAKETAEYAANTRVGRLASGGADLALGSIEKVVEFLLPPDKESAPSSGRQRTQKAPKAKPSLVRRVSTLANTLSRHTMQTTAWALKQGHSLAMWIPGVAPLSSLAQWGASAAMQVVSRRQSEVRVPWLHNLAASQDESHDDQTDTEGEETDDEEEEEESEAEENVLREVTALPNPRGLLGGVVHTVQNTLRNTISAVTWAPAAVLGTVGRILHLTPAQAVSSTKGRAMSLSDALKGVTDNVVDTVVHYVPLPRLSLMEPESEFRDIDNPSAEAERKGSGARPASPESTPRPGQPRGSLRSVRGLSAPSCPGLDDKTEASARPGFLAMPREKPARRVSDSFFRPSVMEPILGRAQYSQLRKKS

T3: Myc-tagged full-length Plin1 (F-Plin1) (UniProt Q8CGN5)
T3 sequence: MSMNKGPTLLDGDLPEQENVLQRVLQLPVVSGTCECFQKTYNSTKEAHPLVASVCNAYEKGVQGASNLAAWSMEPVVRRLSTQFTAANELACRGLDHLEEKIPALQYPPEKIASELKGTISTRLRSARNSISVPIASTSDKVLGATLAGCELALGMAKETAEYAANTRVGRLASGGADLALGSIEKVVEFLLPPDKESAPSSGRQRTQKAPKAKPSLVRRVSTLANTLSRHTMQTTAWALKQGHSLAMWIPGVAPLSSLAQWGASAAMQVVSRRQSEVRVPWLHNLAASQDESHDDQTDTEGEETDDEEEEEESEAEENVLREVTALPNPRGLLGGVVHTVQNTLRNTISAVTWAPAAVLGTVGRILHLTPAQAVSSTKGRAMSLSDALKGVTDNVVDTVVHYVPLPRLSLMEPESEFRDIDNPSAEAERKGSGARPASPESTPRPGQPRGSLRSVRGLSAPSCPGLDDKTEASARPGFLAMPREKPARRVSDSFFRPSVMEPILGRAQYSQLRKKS

T4: Myc-tagged Plin1SD (UniProt Q8CGN5)
T4 sequence: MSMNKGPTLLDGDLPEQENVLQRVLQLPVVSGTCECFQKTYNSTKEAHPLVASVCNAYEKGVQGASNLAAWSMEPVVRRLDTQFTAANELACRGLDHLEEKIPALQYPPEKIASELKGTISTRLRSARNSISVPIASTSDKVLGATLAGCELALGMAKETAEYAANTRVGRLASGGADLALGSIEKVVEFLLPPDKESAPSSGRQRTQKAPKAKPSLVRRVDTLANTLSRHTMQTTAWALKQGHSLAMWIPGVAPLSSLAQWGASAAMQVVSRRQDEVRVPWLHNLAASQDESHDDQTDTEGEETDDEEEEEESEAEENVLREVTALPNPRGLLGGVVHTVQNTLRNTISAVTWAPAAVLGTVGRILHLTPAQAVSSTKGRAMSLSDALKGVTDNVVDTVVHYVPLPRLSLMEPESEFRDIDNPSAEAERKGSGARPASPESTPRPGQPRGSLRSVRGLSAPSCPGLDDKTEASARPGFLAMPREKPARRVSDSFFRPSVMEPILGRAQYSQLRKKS


Legend:
[1] = molecular target: T1, endogenous Perilipin 1 (Plin1) (mouse (endogenous in WAT and 3T3-L1)); assay: co-IP; differentiated 3T3-L1 adipocytes with Dox-inducible F-ApoL6-HA or N-ApoL6-HA, basal or stimulated, with or without Dox; 1% Triton X-100, 150 mM NaCl, 10% glycerol, 25 mM Tris pH 7.4; IP with Plin1 antibody at 4 C overnight, immunoblot with HSL antibody
[2] = molecular target: T1, endogenous Perilipin 1 (Plin1) (mouse (endogenous in WAT and 3T3-L1)); assay: co-IP; sequential IP of cross-linked lysates: first HA beads, glycine elution, then HSL or Plin1 antibody; native PAGE; immunoblot with HA antibody, MS of the high molecular weight band
[3] = molecular target: T1, endogenous Perilipin 1 (Plin1) (mouse (endogenous in WAT and 3T3-L1)); assay: co-IP; total LD-associated proteins of mouse WAT (aP2-ApoL6 TG or WT; fasted or fed mice for Plin1-HSL); IP with Myc, Plin1 or ApoL6 antibody, immunoblot
[4] = molecular target: T2, Plin1 expressed in HEK293 cells; assay: co-IP; HEK293 cells co-transfected with Plin1 and HSL and infected with Dox-inducible lentiviral F-ApoL6-HA or N-ApoL6-HA, stimulated condition, with or without Dox; IP with Plin1 antibody, immunoblot with HSL antibody
[5] = molecular target: T3, Myc-tagged full-length Plin1 (F-Plin1); assay: co-IP; 293 FT cells co-transfected with Myc-tagged Plin1 or Plin1SD and HA tagged ApoL6 and/or HSL (basal condition); IP with Myc antibody, immunoblot with HA or HSL antibody
Myc-tagged Plin1SD = molecular target: T4, Myc-tagged Plin1SD; assay: as above

binding [1]	binding [2]	binding [3]	binding [4]	binding [5]	binding (Myc-tagged Plin1SD)	Binder
binds	binds	binds				endogenous hormone-sensitive lipase (HSL) (enzyme, UniProt P54310 1-759) MDLRTMTQSLVTLAEDNMAFFSSQGPGETARRLSNVFAGVREQALGLEPTLGQLLGVAHHFDLDTETPANGYRSLVHTARCCLAHLLHKSRYVASNRKSIFFRASHNLAELEAYLAALTQLRAMAYYAQRLLTINRPGVLFFEGDEGLTADFLQEYVTLHKGCFYGRCLGFQFTPAIRPFLQTLSIGLVSFGEHYKRNETGLSVTASSLFTGGRFAIDPELRGAEFERIIQNLDVHFWKAFWNITEIEVLSSLANMASTTVRVSRLLSLPPEAFEMPLTSDPRLTVTISPPLAHTGPAPVLARLISYDLREGQDSKVLNSLAKSEGPRLELRPRPHQAPRSRALVVHIHGGGFVAQTSKSHEPYLKNWAQELGVPIFSIDYSLAPEAPFPRALEECFFAYCWAVKHCDLLGSTGERICLAGDSAGGNLCITVSLRAAAYGVRVPDGIMAAYPVTTLQSSASPSRLLSLMDPLLPLSVLSKCVSAYSGTEAEDHFDSDQKALGVMGLVQRDTSLFLRDLRLGASSWLNSFLELSGRKPQKTTSPTAESVRPTESMRRSVSEAALAQPEGLLGTDTLKKLTIKDLSNSEPSDSPEMSQSMETLGPSTPSDVNFFLRPGNSQEEAEAKDEVRPMDGVPRVRAAFPEGFHPRRSSQGVLHMPLYTSPIVKNPFMSPLLAPDSMLKTLPPVHLVACALDPMLDDSVMFARRLRDLGQPVTLKVVEDLPHGFLSLAALCRETRQATEFCVQRIRLILTPPAAPLN
			binds	binds	binds	HSL expressed in HEK293 / 293 FT cells (enzyme, UniProt P54310 1-759) MDLRTMTQSLVTLAEDNMAFFSSQGPGETARRLSNVFAGVREQALGLEPTLGQLLGVAHHFDLDTETPANGYRSLVHTARCCLAHLLHKSRYVASNRKSIFFRASHNLAELEAYLAALTQLRAMAYYAQRLLTINRPGVLFFEGDEGLTADFLQEYVTLHKGCFYGRCLGFQFTPAIRPFLQTLSIGLVSFGEHYKRNETGLSVTASSLFTGGRFAIDPELRGAEFERIIQNLDVHFWKAFWNITEIEVLSSLANMASTTVRVSRLLSLPPEAFEMPLTSDPRLTVTISPPLAHTGPAPVLARLISYDLREGQDSKVLNSLAKSEGPRLELRPRPHQAPRSRALVVHIHGGGFVAQTSKSHEPYLKNWAQELGVPIFSIDYSLAPEAPFPRALEECFFAYCWAVKHCDLLGSTGERICLAGDSAGGNLCITVSLRAAAYGVRVPDGIMAAYPVTTLQSSASPSRLLSLMDPLLPLSVLSKCVSAYSGTEAEDHFDSDQKALGVMGLVQRDTSLFLRDLRLGASSWLNSFLELSGRKPQKTTSPTAESVRPTESMRRSVSEAALAQPEGLLGTDTLKKLTIKDLSNSEPSDSPEMSQSMETLGPSTPSDVNFFLRPGNSQEEAEAKDEVRPMDGVPRVRAAFPEGFHPRRSSQGVLHMPLYTSPIVKNPFMSPLLAPDSMLKTLPPVHLVACALDPMLDDSVMFARRLRDLGQPVTLKVVEDLPHGFLSLAALCRETRQATEFCVQRIRLILTPPAAPLN
